Data published in PubChem BioAssay AID540276 (National Center for Advancing Translational Sciences (NCATS), 2011).
Several values for one entry are separate records, joined by “and”; a condition that tells them apart may be missing. Entries that show only a call come without a potency. Equal values may be shown once. Screen size: about 300,000 compounds; about 5,400 (1.8%) were called active. The shares of active, inactive and inconclusive entries below differ from those in the screen. Calls come from the whole dose curve; tested in HEK293 cells. Potencies beside an inconclusive call are fits to weak or partial responses and may not hold up.

Assay: qHTS for inhibitors of binding or entry into cells for Marburg Virus
Details: Marburg virus pseudotyped entry inhibition, cell reporter; activity change, negative = inhibition: at 37.8 µM (top of the series) unless noted
Potency is the fitted concentration of half-maximal effect.

Row | SMILES | Potency | activity change, negative = inhibition
1 | O=C(c1ccccc1)N1CCC2(CC1)OCCO2 | inactive | 
2 | O=C(CSc1cccc2cccnc12)Nc1ccccc1F | inactive | 
3 | c1ccc(C2CC2)c(OCC2=NCCN2)c1 | inconclusive: 5.17 µM [inhibitor, partial curve, poor fit] and inconclusive: 22.4 µM [inhibitor, partial curve, poor fit] | 
4 | Cc1nn(CCCC(=O)NCc2cccc(Cl)c2)c(=O)c2c1sc1ccccc12 | inactive | 
5 | Cc1ccc(COC(=O)c2nn(C)c(=O)c3ccccc23)cc1 | inactive | 
6 | C=CCn1c(=O)c2ccccc2n2c(SCC(=O)Nc3sc(C)c(CC)c3C(=O)OCC)nnc12 | inconclusive: 22.4 µM [inhibitor, partial curve, poor fit] | 
7 | CC(C(=O)OCc1nnc(-c2ccccc2)o1)N1C(=O)c2ccccc2C1=O (stereo unspecified) | inactive | 
8 | CCC(C)Oc1ccccc1C1CC(=O)NC2=C1C(=O)CCC2 (stereo unspecified) | inconclusive: 11.2 µM [inhibitor, partial curve, poor fit] | 
9 | CCCNC(=O)OC[C@H]1O[C@H](CCO/N=C2/[C@H]3CCn4c(=O)n(-c5ccccc5)c(=O)n4[C@H]3[C@H](O)[C@@H]3O[C@H]23)C=C[C@@H]1Oc1ccc(OC)cc1 | inconclusive: 2.66 µM [activator, single point] | 
10 | Cn1ncc2c(c(SCc3ccc(Cl)cc3Cl)nn2C)c1=O | inactive | 
11 | COc1ccccc1CCNC(=O)/C(=C/c1cccnc1)NC(=O)c1ccccc1 | inactive | 
12 | Cc1cc(F)ccc1S(=O)(=O)N1CCCOC1CNC(=O)C(=O)NCc1ccccn1 (stereo unspecified) | inactive | 
13 | COc1ccc(S(=O)(=O)N2CCC(C(=O)N[C@H](C(=O)NCc3ccco3)C(C)C)CC2)cc1 | inconclusive: 6.31 µM [activator, single point] | 
14 | CCN(CC1CCCO1)C(=O)CCc1nnc(CCc2ccc(OC)cc2)o1 (stereo unspecified) | inactive | 
15 | CCc1nc(OCc2ccco2)c2sc3nc4c(cc3c2n1)COC(C)(C)C4 | inconclusive: 7.08 µM [inhibitor, partial curve, poor fit] | 
16 | O=C(OCCN1CCOCC1)c1cccc(F)c1 | inactive | 
17 | CC(C)[C@H](NS(=O)(=O)c1ccccc1)C(=O)OCC(=O)Nc1ccc2c(c1)OCO2 | inactive | 
18 | CN(Cc1ccccn1)C(=O)c1ccc2nc(Cc3cccc(Cl)c3)oc2c1 | inactive | 
19 | O=C(NC12CC3CC(CC(C3)C1)C2)C1CC(=O)N(c2ccccc2)C1 (stereo unspecified) |  | inconclusive: 5.81% [activator]
20 | CCn1c(NCCO)nc2c(c1=O)C(C)(CC)Cc1ccccc1-2 (stereo unspecified) | inactive | 
21 | Cc1nnc2n(-c3ccccc3)c(=O)c3c4c(sc3n12)CC(C)CC4 (stereo unspecified) | inactive | 

Some of these compounds in order of molar mass, largest number first:
Row | SMILES | Potency | activity change, negative = inhibition
18 | CN(Cc1ccccn1)C(=O)c1ccc2nc(Cc3cccc(Cl)c3)oc2c1 | inactive | 
7 | CC(C(=O)OCc1nnc(-c2ccccc2)o1)N1C(=O)c2ccccc2C1=O (stereo unspecified) | inactive | 
10 | Cn1ncc2c(c(SCc3ccc(Cl)cc3Cl)nn2C)c1=O | inactive | 
